Results: PubChem BioAssay AID504467 (National Center for Advancing Translational Sciences (NCATS), 2011)
Hit rate of the full screen: of about 330,000 compounds, about 7,700 (2.3%) were called active. This list was built around the results that the source calls inconclusive (neither active nor inactive); the mix of calls is not that of the screen. The call rests on the fitted dose curve; in most records, active means well fitted inhibition curve with a large enough effect; inconclusive means small, poorly fitted or top-dose-only effect, or effect the other way; inactive means flat fitted curve, though single readings scatter. Potencies beside an inconclusive call are fits to weak or partial responses and may not hold up.
On the % scale 0 is the no-effect control and ±100 the full control effect; potency means the concentration at half of the fitted maximal effect.

Experiment: qHTS screen for small molecules that inhibit ELG1-dependent DNA repair in human embryonic kidney (HEK293T) cells expressing luciferase-tagged ELG1; further: nearly all actives have a fitted effect of over 55% in size
Details: HEK293T ELG1-luciferase reporter, luminescence, 16 h, DNA damage induced by 5-fluorouridine; activity change, negative = inhibition: at 46.1 µM (top of the series)
Outline: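 Cells (2,000 per well) received 5-fluorouridine plus test compound or DMSO and were incubated 16 hr at 37 °C, 5% CO2. Luciferase activity was read by luminescence 30 min after ONE-Glo addition; signal suppression marked inhibition of damage-induced ELG1 function.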
For `Cc1ccc(Cn2nnc3c(=O)[nH]c(C4CCN(S(=O)(=O)c5ccc(F)cc5)CC4)nc32)cc1`, the Potency was inconclusive: 25.9 µM [inhibitor, partial curve, poor fit].
In the case of `CC(C)CNC(=S)NNC(=O)c1csc2c1CCC(C)C2` (configuration not stated), the “activity change, negative = inhibition” value is reported as inactive: -10.7%.
With `CCCNC(=O)Cc1c(C)n(C(=O)c2ccc(Cl)cc2)c2ccc(OC)cc12` the Potency was inconclusive: 18.3 µM [inhibitor, partial curve].
In the case of `Cc1[nH]n(C(N)=S)c(=O)c1N=Nc1cccc(C(F)(F)F)c1`, the Potency is reported as inconclusive: 6.51 µM [activator, full curve].
In the case of `COc1cc(C(F)(F)F)c(C(=O)N(C)c2ccc(Cl)cc2)cn1`, the Potency is reported as inconclusive: 25.9 µM [inhibitor, partial curve].
In the case of `O=[N+]([O-])c1cccc(CSc2nc3ccccc3[nH]2)c1`, the Potency is reported as inconclusive: 16.4 µM [activator, partial curve].
In the case of `CCCn1c(N2CCN(CC(=O)c3c[nH]c4ccccc34)CC2)nc2c1c(=O)[nH]c(=O)n2C`, the Potency is reported as inconclusive: 25.1 µM [inhibitor, single point].
With `CCC(=O)NCC(c1cccs1)N1CCOCC1` (configuration not stated) the “activity change, negative = inhibition” value was inactive: -6.35%.
With `O=C(NNC(=O)C1CCCCC1)c1ccc(Br)cc1` the Potency was inconclusive: 23.1 µM [activator, partial curve].
For `CSc1ncccc1C(=O)OCC(=O)NC1CC1`, the “activity change, negative = inhibition” value was inactive: 11.5%.
For `CCOc1cc(S(=O)(=O)N2CCCC2)ccc1Cl`, the “activity change, negative = inhibition” value was inactive: 9.82%.
For `COC(=O)C(NC(C)=O)(Nc1ccccn1)C(F)(F)F` (configuration not stated), the “activity change, negative = inhibition” value was inactive: 4.6%.
In the case of `Cc1cccc(CCNC(=O)C2CCCN(c3ncnc4c3nc3n4CCCCC3)C2)c1` (configuration not stated), the Potency is reported as inconclusive: 29.1 µM [inhibitor, single point].
For `CCN(C(=O)c1ccccc1F)c1nc(-c2ccc(OC)cc2)cs1`, the Potency was inconclusive: 8.2 µM [activator, partial curve].
For `COc1ccc(NC(=O)Nc2cc(C)ccc2F)cc1`, the Potency was inconclusive: 10.3 µM [activator, partial curve].
With `Cn1cc(S(=O)(=O)N2CCCC2)cc1C(=O)NCc1ccccc1Cl` the “activity change, negative = inhibition” value was inactive: -3.35%.
In the case of `O=C(Nc1ccc(-c2csnn2)cc1)C(Cl)(Cl)Cl`, the “activity change, negative = inhibition” value is reported as inactive: 1.12%.
With `COc1cc(NC2=Nc3cccc4cccc2c34)cc(OC)c1OC` the “activity change, negative = inhibition” value was inactive: 1.92%.
With `COc1ccc(-c2csc(NNC3=NCCCCC3)n2)cc1` the Potency was inconclusive: 6.51 µM [activator, partial curve, poor fit].
In the case of `O=C(CSCc1ccccc1Cl)N1CCN(c2ccccn2)CC1`, the Potency is reported as inconclusive: 18.4 µM [activator, partial curve].
In the case of `CCN(CC)C(=O)[C@H]1CC(CC(=O)NC/C=C(\C)CCC=C(C)C)C(=O)N2CCc3c([nH]c4ccccc34)[C@]12C` (some centres not stated), the Potency is reported as inconclusive: 29.1 µM [inhibitor, single point].
In the case of `CC(=O)C[C@H](O)CC(=O)[C@H]1OC(=O)[C@H](C)C/C=C\Cc2ccccc21`, the Potency is reported as inconclusive: 25.9 µM [activator, single point].
In the case of `Cc1ccc2c(c1)C1CC(C)(O2)N(c2cccc(C(=O)N3CCN(c4ccccn4)CC3)c2)C(=O)N1` (configuration not stated), the “activity change, negative = inhibition” value is reported as inactive: -9.34%.
For `Cc1ccc(OCC(O)Cn2c(=N)n(CCN3CCOCC3)c3ccccc32)cc1` (configuration not stated), the “activity change, negative = inhibition” value was inactive: 0%.
In the case of `Cc1nonc1C(=O)N/N=C/c1ccc(O)c(O)c1`, the “activity change, negative = inhibition” value is reported as inactive: 10.9%.
In the case of `Cc1onc(-c2ccccc2)c1C(=O)N[C@@H]1C(=O)N2[C@@H]1SC(C)(C)[C@@H]2C(=O)O`, the “activity change, negative = inhibition” value is reported as inactive: -1.55%.
With `N#Cc1c(N2C(=O)c3ccc(C(=O)O)cc3C2=O)sc2c1CCCC2` the “activity change, negative = inhibition” value was inactive: 0.712%.
In the case of `O=C(COC(=O)c1ccc(F)cc1Cl)NC1CCS(=O)(=O)C1` (configuration not stated), the “activity change, negative = inhibition” value is reported as inactive: 9.18%.
In the case of `O=Cc1sc(N2CCOCC2)nc1-c1ccccc1`, the Potency is reported as inconclusive: 6.51 µM [inhibitor, partial curve, poor fit].
For `CC(=O)c1cccc(NC2c3ccccc3C(=O)N2Cc2ccc3c(c2)OCO3)c1` (configuration not stated), the Potency was inconclusive: 20.6 µM [inhibitor, partial curve, poor fit].
For `N#CCCN(Cc1cccnc1)C(=S)NC1CC2C=CC1C2` (configuration not stated), the Potency was inconclusive: 2.06 µM [inhibitor, partial curve, poor fit].
In the case of `O=C(c1cn(-c2ccccc2)nc1-c1cccnc1)N1CCCCC1`, the “activity change, negative = inhibition” value is reported as inactive: -0.348%.
In the case of `Cc1ccc2c(c1)-n1c(nc3ccc(C)cc3c1=O)C(Cc1ccc(O)cc1)NC2=O` (configuration not stated), the “activity change, negative = inhibition” value is reported as inactive: 0.0504%.
In the case of `Cc1cc(C)c(C#N)c(SCC(=O)C2CC2)n1`, the Potency is reported as inconclusive: 14.6 µM [activator, partial curve].
In the case of `COC(=O)C1=C(C)N(Cc2ccccc2)C(=NCCc2c[nH]c3ccccc23)N[C@H]1c1cccc(C(F)(F)F)c1`, the Potency is reported as inconclusive: 23.1 µM [activator, single point].
In the case of `Cc1c(C(=O)OCC(=O)N2CCN(c3ccccc3)CC2)oc2ccccc12`, the Potency is reported as inconclusive: 29.1 µM [inhibitor, single point].
In the case of `Cc1ccc(/C=N/Nc2nnc(Cl)c3ccccc23)cc1`, the Potency is reported as inconclusive: 2.06 µM [activator, full curve].
With `Cc1ccc(Cn2nnc(C(=O)Nc3cccc(C)c3C)c2N)cc1` the “activity change, negative = inhibition” value was inactive: 13.1%.
With `COc1ccccc1NC(=O)COC(=O)c1ccc(N2CCCC2=O)cc1` the “activity change, negative = inhibition” value was inactive: -10.2%.
For `O=C1CS/C(=N\NC(=O)c2ccccc2)N1`, the “activity change, negative = inhibition” value was inactive: 0.719%.
For `COC(=O)c1c(C)[nH]c(C(=O)OCC(=O)NC(C)(C)C)c1C`, the Potency was inconclusive: 7.3 µM [inhibitor, partial curve, poor fit].
For `O=C(COC(=O)CCN1C(=O)/C(=C\C=C\c2ccccc2)SC1=S)Nc1cc(F)ccc1F`, the Potency was inconclusive: 16.4 µM [activator, single point].
For `CN(C)CCCNC(=O)C[C@H]1C[C@H](C(=O)N2CCOCC2)[C@@]2(CCC3CCCC3)c3[nH]c4cc(-c5ccco5)ccc4c3CCN2C1=O`, the Potency was inconclusive: 18.3 µM [activator, single point].
In the case of `CC(=O)Nc1nc(C)c(-c2csc(Nc3ccc(O)cc3)n2)s1`, the Potency is reported as inconclusive: 2.91 µM [inhibitor, full curve].
In the case of `Cc1[nH]cnc1CSCc1ccc(F)cc1`, the Potency is reported as inconclusive: 18.4 µM [activator, single point].
For `Cc1ccc(-c2ccc(=O)n(CC(=O)NCCC(C)C)n2)cc1`, the “activity change, negative = inhibition” value was inactive: 15.5%.
In the case of `COc1ccccc1/C=N/N(C(C)=O)c1nc(-c2ccc(F)cc2)cs1`, the Potency is reported as inconclusive: 3.66 µM [activator, full curve, poor fit].
With `Cc1occc1-c1nnc(SCC(=O)N2CCCC(C)C2)o1` (configuration not stated) the Potency was inconclusive: 23.1 µM [activator, single point].
In the case of `c1ccc(-c2nc(N3CCN(c4ccccc4)CC3)nc(-n3ccnc3)n2)cc1`, the Potency is reported as inconclusive: 23.1 µM [inhibitor, partial curve, poor fit].
For `Cn1nnnc1SCC(=O)N1c2ccccc2Sc2ccc(Cl)cc21`, the “activity change, negative = inhibition” value was inactive: 9.32%.
With `COc1ccc(C(=O)Nc2cc(C(=O)O)cc(C(=O)O)c2)cc1Cl` the “activity change, negative = inhibition” value was inactive: -7.7%.
For `O=c1oc2ccccc2cc1-c1csc(NN=C2CCCCC2)n1`, the Potency was inconclusive: 8.2 µM [activator, partial curve].
In the case of `CN1/C(=C\C(=O)CSc2nnc(NCc3ccccc3)s2)C(C)(C)c2ccccc21`, the Potency is reported as active: 18.4 µM.
With `COc1ccccc1CN1CC(C(=O)N2CCC(C(=O)c3ccccc3)CC2)CCC1=O` (configuration not stated) the Potency was inconclusive: 16.4 µM [activator, partial curve].
In the case of `CCOc1ccc(NC(=O)CN(C)C(=O)c2ccc3[nH]c4c(c3c2)CC(C)CC4)cc1OCC` (configuration not stated), the Potency is reported as inconclusive: 9.2 µM [inhibitor, single point].
For `COc1ccc(C(C(=O)NC2CCCCC2)N(Cc2cccs2)C(=O)Cc2c[nH]c3ccccc23)cc1OC` (configuration not stated), the Potency was inconclusive: 20.6 µM [inhibitor, single point].
For `Cc1nc2sc(-c3ccccc3)cc2c(=O)n1/N=C/N(C)C`, the Potency was inconclusive: 16.4 µM [activator, partial curve].
With `COc1cc(SC)ccc1C(=O)NCCOc1ccc(F)cc1` the Potency was inconclusive: 16.4 µM [activator, partial curve].
With `CCOC(=O)C1(CCCc2ccccc2)CCN(C(=O)c2cncs2)CC1` the “activity change, negative = inhibition” value was inactive: -16.8%.
In the case of `CC(OC(=O)CN1C(=O)C2C3C=CC(C4CC34)C2C1=O)C(=O)c1ccccc1` (configuration not stated), the Potency is reported as inconclusive: 29.1 µM [inhibitor, single point].
With `COc1c(O)c(O)c2oc(-c3ccccc3)cc(=O)c2c1OC` the “activity change, negative = inhibition” value was inactive: -9.98%.
In the case of `Cc1ccccc1NC(=S)NCCc1c[nH]c2ccccc12`, the “activity change, negative = inhibition” value is reported as inactive: -19.9%.
For `Cc1ccccc1Nc1nc(N)nc(CN2C(=O)NC3(CCCCC3C)C2=O)n1` (configuration not stated), the Potency was inconclusive: 14.6 µM [activator, partial curve, poor fit].
With `CCNC(=O)/C(C#N)=C/c1c(N(Cc2ccccc2)Cc2ccccc2)nc2ccccn2c1=O` the Potency was active: 11.6 µM.
In the case of `Cc1cc(C)nc(SCC(=O)c2cc3ccccc3oc2=O)n1`, the “activity change, negative = inhibition” value is reported as inactive: 0%.
For `Cc1cc(S(=O)(=O)N2CCN(c3ccc(F)cc3)CC2)ccc1-n1cnnn1`, the “activity change, negative = inhibition” value was inactive: -0.38%.
With `O=C(O)c1ccccc1C(=O)c1cccc2ccccc12` the “activity change, negative = inhibition” value was inactive: 9.41%.
In the case of `Cc1cccc(NC(=O)COc2ccc3oc4c(c3c2)CCCC4)n1`, the Potency is reported as inconclusive: 29.1 µM [activator, single point].
In the case of `CC(=O)N1CCN(c2ccc(S(=O)(=O)N3CCCCC3)cc2[N+](=O)[O-])CC1`, the Potency is reported as inconclusive: 16.4 µM [inhibitor, partial curve].
In the case of `O=C(NCC1CCCO1)C(c1cccs1)N(Cc1cccs1)C(=O)Cn1nnc(-c2cccs2)n1` (configuration not stated), the Potency is reported as inconclusive: 23.1 µM [inhibitor, partial curve].
In the case of `COc1ccccc1Nc1ncc(-c2cccs2)s1`, the Potency is reported as inconclusive: 9.2 µM [activator, partial curve, poor fit].
For `O=C(O)CC1(CC(=O)Nc2ccc(Cl)cc2C(=O)c2ccccc2)CCCC1`, the “activity change, negative = inhibition” value was inactive: 12.3%.
